3 substances from article PMC11341699 can be followed below.

The chains behind the UniProt entries cited, without tags or fusion partners. Where a name states a change or a piece, a line headed by the entry shows the natural chain unless it says otherwise.
UniProt Q3TJD7: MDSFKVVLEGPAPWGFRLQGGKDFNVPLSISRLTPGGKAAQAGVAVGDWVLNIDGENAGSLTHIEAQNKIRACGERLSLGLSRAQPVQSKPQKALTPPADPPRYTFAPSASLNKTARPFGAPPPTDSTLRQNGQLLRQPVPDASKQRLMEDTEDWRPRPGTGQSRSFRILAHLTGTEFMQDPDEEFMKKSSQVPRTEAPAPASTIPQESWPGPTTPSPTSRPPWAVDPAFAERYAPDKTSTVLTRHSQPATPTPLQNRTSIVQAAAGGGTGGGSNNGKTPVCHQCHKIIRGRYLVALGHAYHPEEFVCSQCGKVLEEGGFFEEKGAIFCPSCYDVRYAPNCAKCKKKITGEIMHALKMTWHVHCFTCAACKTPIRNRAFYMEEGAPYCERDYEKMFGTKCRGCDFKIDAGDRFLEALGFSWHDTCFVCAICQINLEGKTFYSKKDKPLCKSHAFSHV
UniProt Q7TPH6: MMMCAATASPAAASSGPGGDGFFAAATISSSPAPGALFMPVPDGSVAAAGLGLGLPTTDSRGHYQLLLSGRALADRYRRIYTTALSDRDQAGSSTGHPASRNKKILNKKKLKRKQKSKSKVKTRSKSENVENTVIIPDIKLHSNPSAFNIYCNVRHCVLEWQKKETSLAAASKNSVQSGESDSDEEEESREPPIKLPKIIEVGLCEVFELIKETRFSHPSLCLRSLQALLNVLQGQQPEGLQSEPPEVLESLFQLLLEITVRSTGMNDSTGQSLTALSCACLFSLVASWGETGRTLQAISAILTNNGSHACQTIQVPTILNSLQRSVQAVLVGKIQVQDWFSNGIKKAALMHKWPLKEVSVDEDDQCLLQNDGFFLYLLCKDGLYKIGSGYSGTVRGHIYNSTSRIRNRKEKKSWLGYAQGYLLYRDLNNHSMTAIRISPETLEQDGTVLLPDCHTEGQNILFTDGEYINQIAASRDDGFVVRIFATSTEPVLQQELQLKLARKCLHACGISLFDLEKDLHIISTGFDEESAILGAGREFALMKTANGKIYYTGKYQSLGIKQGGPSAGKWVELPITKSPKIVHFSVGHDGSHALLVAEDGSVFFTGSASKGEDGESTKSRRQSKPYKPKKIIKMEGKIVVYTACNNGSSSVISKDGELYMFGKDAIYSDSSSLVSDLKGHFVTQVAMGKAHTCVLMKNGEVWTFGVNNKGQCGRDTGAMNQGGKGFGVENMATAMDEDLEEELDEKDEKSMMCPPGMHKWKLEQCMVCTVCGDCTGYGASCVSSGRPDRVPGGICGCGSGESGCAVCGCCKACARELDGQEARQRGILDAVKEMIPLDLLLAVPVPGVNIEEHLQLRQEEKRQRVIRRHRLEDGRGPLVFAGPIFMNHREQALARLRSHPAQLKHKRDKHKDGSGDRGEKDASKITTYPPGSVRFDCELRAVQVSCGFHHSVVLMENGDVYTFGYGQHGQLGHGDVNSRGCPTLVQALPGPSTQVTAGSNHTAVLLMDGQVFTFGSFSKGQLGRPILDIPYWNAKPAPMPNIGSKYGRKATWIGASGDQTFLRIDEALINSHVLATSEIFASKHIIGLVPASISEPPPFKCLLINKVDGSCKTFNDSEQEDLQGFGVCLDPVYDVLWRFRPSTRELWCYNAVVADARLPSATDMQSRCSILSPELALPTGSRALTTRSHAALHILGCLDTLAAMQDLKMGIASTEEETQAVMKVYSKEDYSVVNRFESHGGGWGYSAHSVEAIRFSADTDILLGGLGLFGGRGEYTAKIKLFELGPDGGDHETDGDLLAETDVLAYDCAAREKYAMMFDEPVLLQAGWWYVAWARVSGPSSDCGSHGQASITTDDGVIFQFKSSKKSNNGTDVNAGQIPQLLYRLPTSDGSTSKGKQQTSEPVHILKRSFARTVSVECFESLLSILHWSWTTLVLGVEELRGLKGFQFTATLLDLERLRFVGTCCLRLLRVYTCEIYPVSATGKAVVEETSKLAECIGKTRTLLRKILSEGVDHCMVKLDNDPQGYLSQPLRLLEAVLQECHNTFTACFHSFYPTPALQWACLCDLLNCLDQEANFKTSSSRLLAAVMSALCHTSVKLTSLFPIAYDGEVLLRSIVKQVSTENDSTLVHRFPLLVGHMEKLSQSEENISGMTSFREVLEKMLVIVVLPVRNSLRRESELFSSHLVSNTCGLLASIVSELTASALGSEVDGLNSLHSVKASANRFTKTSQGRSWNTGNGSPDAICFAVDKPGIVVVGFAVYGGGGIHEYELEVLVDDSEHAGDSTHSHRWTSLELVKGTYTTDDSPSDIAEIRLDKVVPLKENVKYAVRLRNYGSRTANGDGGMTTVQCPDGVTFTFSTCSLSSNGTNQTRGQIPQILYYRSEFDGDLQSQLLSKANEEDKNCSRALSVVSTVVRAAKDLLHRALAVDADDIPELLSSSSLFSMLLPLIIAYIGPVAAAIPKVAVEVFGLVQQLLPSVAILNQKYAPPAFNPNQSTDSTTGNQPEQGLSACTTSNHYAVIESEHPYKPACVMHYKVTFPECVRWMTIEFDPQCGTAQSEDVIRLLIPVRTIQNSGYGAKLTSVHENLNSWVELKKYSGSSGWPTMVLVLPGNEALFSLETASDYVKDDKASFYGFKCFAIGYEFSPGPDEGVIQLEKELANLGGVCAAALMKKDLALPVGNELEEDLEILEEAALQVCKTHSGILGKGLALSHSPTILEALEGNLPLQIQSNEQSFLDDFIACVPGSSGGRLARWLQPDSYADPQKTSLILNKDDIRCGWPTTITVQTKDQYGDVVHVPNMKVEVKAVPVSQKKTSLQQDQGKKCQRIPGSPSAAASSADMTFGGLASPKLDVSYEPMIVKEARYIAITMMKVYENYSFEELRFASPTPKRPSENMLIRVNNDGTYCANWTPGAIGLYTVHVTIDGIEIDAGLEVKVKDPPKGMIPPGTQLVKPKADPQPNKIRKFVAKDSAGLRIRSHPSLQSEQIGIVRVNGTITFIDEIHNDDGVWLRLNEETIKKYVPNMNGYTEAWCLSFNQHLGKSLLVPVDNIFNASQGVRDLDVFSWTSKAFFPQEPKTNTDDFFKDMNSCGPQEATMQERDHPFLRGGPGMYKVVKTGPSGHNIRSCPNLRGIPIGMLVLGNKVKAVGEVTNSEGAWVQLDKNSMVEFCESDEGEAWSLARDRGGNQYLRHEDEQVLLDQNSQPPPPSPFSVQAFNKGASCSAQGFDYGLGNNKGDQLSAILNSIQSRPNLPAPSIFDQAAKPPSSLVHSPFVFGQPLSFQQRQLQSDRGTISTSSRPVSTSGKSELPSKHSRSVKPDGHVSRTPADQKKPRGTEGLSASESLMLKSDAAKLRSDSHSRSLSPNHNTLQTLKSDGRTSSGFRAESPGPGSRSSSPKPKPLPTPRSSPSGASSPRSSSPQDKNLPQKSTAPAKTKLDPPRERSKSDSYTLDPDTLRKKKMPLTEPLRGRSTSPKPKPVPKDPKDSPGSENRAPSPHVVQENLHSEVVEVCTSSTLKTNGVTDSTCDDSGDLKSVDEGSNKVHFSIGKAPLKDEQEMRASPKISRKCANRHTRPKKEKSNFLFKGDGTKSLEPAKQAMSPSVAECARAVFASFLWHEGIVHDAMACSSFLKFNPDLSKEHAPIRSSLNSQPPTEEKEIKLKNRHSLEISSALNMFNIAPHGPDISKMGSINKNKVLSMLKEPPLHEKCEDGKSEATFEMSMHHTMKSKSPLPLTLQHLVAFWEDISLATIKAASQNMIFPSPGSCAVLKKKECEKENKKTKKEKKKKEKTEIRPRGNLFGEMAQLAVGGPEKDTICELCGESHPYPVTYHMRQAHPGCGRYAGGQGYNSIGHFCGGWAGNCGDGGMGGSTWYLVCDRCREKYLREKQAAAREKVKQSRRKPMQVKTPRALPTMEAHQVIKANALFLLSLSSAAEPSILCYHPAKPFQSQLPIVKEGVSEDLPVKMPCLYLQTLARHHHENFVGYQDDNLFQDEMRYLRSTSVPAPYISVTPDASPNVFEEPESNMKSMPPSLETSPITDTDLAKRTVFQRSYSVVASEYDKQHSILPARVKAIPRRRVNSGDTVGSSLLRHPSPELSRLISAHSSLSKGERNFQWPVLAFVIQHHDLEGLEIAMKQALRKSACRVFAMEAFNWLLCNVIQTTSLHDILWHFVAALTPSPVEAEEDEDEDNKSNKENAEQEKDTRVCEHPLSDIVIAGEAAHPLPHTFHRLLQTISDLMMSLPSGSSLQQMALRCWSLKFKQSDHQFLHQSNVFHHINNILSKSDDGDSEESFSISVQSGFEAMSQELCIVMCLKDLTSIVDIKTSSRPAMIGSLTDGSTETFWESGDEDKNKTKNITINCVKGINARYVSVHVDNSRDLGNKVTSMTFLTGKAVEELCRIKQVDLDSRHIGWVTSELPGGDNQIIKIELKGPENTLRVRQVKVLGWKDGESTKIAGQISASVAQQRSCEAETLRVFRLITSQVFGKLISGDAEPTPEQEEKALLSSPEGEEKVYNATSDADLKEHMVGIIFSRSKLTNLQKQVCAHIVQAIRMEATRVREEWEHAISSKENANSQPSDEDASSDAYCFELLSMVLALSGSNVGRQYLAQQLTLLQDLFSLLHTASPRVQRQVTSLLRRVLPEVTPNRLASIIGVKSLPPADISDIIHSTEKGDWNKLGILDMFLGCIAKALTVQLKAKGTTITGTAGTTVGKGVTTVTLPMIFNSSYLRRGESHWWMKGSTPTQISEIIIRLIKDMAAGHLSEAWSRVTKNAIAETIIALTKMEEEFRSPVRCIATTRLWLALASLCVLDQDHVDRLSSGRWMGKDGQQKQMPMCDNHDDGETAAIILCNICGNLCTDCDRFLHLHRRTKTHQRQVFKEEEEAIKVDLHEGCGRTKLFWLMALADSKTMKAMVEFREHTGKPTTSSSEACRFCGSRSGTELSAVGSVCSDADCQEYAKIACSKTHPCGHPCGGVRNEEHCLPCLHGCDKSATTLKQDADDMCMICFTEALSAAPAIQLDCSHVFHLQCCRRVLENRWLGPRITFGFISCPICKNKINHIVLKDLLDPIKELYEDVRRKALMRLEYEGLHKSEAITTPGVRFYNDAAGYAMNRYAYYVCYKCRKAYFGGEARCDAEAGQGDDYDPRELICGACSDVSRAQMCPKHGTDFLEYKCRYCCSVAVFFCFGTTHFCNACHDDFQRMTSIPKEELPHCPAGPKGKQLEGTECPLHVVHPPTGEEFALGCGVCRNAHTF
UniProt P97471: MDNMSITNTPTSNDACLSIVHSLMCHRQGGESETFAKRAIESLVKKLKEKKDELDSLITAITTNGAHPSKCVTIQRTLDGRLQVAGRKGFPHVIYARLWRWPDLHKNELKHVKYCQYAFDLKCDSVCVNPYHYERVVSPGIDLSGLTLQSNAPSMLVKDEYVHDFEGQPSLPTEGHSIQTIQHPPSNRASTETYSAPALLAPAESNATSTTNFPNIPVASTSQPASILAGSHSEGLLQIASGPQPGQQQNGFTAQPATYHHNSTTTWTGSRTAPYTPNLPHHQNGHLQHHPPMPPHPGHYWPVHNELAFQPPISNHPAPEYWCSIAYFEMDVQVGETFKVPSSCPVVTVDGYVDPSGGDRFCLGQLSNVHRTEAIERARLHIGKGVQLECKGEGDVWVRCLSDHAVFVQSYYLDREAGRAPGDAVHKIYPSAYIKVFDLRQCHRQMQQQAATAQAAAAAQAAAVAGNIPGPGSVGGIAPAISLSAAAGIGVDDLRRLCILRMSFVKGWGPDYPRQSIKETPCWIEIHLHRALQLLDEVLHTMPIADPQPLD

The target in experiment [1] is PDZ and LIM domain 7 (mouse (endogenous in SVFs, mature adipocytes, H5V)) (UniProt Q3TJD7). The experiment is described as follows: affinity purification with mass spectrometry; IP-MS: lysates of mouse SVFs precipitated with anti-ANXA1 or anti-PDLIM7 against control IgG; gel pieces digested with trypsin, LC-MS/MS.
Experiment [2] concerns the target T1, Annexin A1 (mouse (endogenous in SVFs, mature adipocytes, H5V)) (UniProt P10107).
T1 sequence: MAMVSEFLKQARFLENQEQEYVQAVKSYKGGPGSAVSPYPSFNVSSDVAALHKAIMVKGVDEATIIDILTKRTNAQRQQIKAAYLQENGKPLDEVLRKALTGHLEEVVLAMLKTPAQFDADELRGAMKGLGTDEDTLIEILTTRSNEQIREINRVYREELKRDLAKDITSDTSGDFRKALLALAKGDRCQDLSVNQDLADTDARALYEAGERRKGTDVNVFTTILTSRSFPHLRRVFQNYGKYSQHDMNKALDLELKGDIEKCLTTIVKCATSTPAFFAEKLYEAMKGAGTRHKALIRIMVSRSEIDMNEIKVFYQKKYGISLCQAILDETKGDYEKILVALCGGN
The experiment is described as above.

No constants are given. Whether binding was seen depends on the method and setting. In cells and extracts the contact can be indirect. These calls come from enrichment with a bait or labelling near it, and not all partners need be listed. For part of these data: A no says only that the protein was not detected with the bait.

In the case of “MYC binding protein 2 (from UniProt Q7TPH6 1-4749) (enzyme)”, in experiment [1], the binding entry is listed as “binds”. In the case of “PDZ and LIM domain 7 (from UniProt Q3TJD7 1-457)”, the binding entry in experiment [2] was “binds”. With “SMAD family member 4 (from UniProt P97471 1-551)”, in experiment [1], the binding result was “no binding”.
